# Laboratory results published in PubChem BioAssay AID504467 (National Center for Advancing Translational Sciences (NCATS), 2011).
# In all, about 330,000 compounds went through this assay and about 7,700 (2.3%) were called active. The inconclusive results got no clear call from the source; some entries with a clear call stand among them for comparison. The call rests on the fitted dose curve; in most records, active means well fitted inhibition curve with a large enough effect; inconclusive means small, poorly fitted or top-dose-only effect, or effect the other way; inactive means flat fitted curve, though single readings scatter. Potencies of inconclusive entries are doubtful fits and often do not repeat.
# Experiment: qHTS screen for small molecules that inhibit ELG1-dependent DNA repair in human embryonic kidney (HEK293T) cells expressing luciferase-tagged ELG1; further: nearly all actives have a fitted effect of over 55% in size
# Conditions: HEK293T ELG1-luciferase reporter, luminescence, 16 h, DNA damage induced by 5-fluorouridine; activity change, negative = inhibition: at 46.1 µM (top of the series)
# Method in brief: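 DMSO vehicle served as the neutral condition. Each well held 2,000 cells given 5-fluorouridine plus compound; after 16 hr at 37 °C/5% CO2, ONE-Glo was added and luciferase measured 30 min later.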
# On the % scale 0 is the no-effect control and ±100 the full control effect; potency means the concentration at half of the fitted maximal effect.
SMILES,"activity change, negative = inhibition",Potency
O=C(CNC(=O)C1CCCCC1)NC1=NCCS1,inactive: 0.457%,
Cc1ccc(C)c(S(=O)(=O)Nc2cc(SCC(=O)O)c(O)c3ccccc23)c1,,"inconclusive: 18.4 µM [inhibitor, single point]"
O=C1N=C(N2CCN(c3cccc4ccccc34)CC2)S/C1=C/c1cccs1,,active: 8.2 µM
O=C(c1cc([N+](=O)[O-])ccc1N1CCOCC1)N1CCN(S(=O)(=O)c2cc(Cl)ccc2Cl)CC1,,"inconclusive: 5.8 µM [inhibitor, partial curve, poor fit]"
CCCOC(=O)c1ccc(NC(=O)C(=O)NCC2CCCO2)cc1 (stereo not given),,"inconclusive: 16.4 µM [activator, partial curve, poor fit]"
C#CCNC(=O)C1=C[C@H](c2csc3ccccc23)C[C@H](OCc2ccc(CO)cc2)O1,,"inconclusive: 25.9 µM [inhibitor, single point]"
O=C(CCCC(=O)N1CCN(c2ccccc2F)CC1)N1CCN(c2ccccc2F)CC1,,"inconclusive: 23.1 µM [inhibitor, partial curve, poor fit]"
COc1cccc(COC(=O)CCNC(=O)c2ccc(Cl)cc2)c1OC,inactive: 28.6%,
Cc1ccc(C(=O)NCCc2c[nH]c3ccccc23)s1,,"inconclusive: 13 µM [activator, partial curve]"
Cn1c(NCc2ccco2)nc2c1c(=O)n(Cc1ccc(Cl)cc1Cl)c(=O)n2C,,"inconclusive: 18.4 µM [inhibitor, single point]"
Cc1cccc(-n2c(=O)cc(N3CCN(c4ccc(F)cc4)CC3)[nH]c2=O)c1,,"inconclusive: 23.1 µM [inhibitor, partial curve]"
CC(C)(C)n1nnnc1C(c1ccncc1)N1CCCCCC1 (stereo not given),inactive: -3.07%,
O=c1[nH]c(CNCc2cccnc2)nc2ccccc12,inactive: 2.82%,
O=C1c2cccnc2C(Nc2ccc(S(=O)(=O)N3CCCCC3)cc2)N1Cc1ccccc1 (stereo not given),,"inconclusive: 32.6 µM [inhibitor, partial curve, poor fit]"
CC(=O)Nc1ccc(NC(=O)CSc2ccc(-c3ccco3)nn2)cc1,inactive: -6.62%,
Cc1nnc(NC(=O)CCSCCC(=O)Nc2nnc(C)s2)s1,inactive: -1.16%,
N/C(=N\OC(=O)C1CC1)c1ccc([N+](=O)[O-])s1,,"inconclusive: 29.1 µM [inhibitor, single point]"
CCOc1cc(-c2nccc3cc(OC)c(OC)cc23)cc(OCC)c1OCC,,active: 14.6 µM
COc1ccc(C(=O)/C=C/C(=O)N(Cc2ccccc2OC)C(C(=O)NC2CCCCC2)c2ccncc2)c(O)c1 (stereo not given),,active: 20.6 µM
O=C(COC(=O)Cc1ccc(F)cc1)Nc1ccc2[nH]c(=O)[nH]c2c1,inactive: 20.5%,

# Fetched one by one from above:
SMILES,"activity change, negative = inhibition",Potency
Cc1ccc(C)c(S(=O)(=O)Nc2cc(SCC(=O)O)c(O)c3ccccc23)c1,,"inconclusive: 18.4 µM [inhibitor, single point]"
O=C(CNC(=O)C1CCCCC1)NC1=NCCS1,inactive: 0.457%,
